The results in this text go back to publication PMC7998036.

No constants are given. Whether binding was seen depends on the method and setting. In cells and extracts the contact can be indirect. Binding can be weak; no strength is given. Where a sequence is shown, tags or fusion partners need not be part of it.

The assay concerns the target T1, N-Myc-Rab13 (UniProt P51153).
T1 sequence: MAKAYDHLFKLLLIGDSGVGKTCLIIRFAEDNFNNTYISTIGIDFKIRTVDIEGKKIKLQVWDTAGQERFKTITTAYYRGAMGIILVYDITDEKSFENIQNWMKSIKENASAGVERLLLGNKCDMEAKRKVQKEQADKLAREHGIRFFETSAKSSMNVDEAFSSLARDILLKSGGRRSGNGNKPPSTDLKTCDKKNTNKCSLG
The assay is described as follows: co-IP; HEK293T co-transfected for 48 h with tagged constructs; 200 μL lysate with 30 μL beads (Myc-Tag, α-HA, IgG: 10 min at room temperature; FLAG: overnight at 4 °C); washed three times with TBST or TBS; immunoblot with α-HA or α-FLAG.

For the substance “N-3xHA-RabGAP1L WT (Rab GTPase-activating Protein 1-like) (human)”, the binding entry is “binds”.
